## Library screening results

Amino acid sequences for entries named in this document (tags omitted).
UniProt E9BF75, entry or part of it: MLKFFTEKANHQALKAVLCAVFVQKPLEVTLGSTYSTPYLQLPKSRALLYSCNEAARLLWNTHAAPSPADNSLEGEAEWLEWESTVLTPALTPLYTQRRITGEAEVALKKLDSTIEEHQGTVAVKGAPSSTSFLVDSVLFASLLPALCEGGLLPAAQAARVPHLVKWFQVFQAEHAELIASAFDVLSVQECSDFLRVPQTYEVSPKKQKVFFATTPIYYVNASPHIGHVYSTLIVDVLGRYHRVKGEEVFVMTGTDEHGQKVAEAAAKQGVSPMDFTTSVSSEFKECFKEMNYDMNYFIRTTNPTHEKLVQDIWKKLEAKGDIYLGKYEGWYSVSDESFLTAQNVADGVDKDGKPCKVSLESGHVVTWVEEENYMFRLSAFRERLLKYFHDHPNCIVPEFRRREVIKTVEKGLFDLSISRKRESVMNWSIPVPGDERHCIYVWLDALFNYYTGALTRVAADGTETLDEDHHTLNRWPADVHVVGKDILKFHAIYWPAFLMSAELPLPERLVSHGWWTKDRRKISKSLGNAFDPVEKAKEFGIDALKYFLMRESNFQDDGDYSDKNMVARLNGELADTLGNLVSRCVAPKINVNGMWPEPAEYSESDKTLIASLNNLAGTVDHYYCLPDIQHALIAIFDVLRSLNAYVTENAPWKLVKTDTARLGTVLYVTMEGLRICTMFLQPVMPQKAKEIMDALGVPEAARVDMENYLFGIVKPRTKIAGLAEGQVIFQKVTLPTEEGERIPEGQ

Source: ChEMBL document CHEMBL3988442, “University of Dundee, Small-Polar-MMV Screening Library” (2021).

LdMetRS: 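Primary screen of methionyl-tRNA synthetase; the read-out is not stated. Target: Methionyl-tRNA synthetase (putative), Leishmania donovani (UniProt E9BF75). The test concentration is not given. Values are per cent inhibition. Size under these conditions: about 68,000 compounds, about 24 of them at 50% or above in at least one test.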
Mtb heat-shock: 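Assay on Mycobacterium tuberculosis, filed only as a heat shock assay from Cornell; the read-out is not stated. The concentration is filed as 10 mM, unlikely as a test dose, so the dose is not known. Higher reads as stronger inhibition (inferred: compounds with an IC50 in retests scored well above the rest). About 69,000 compounds were tested under these conditions; 1.4% (about 930) showed 50% or more at least once.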

Results are percentages, as filed.
The record does not define 0% and 100%; most values in the screen are far below 50% and negative numbers occur (in some assays of this library far below -100).
The compounds are a random part of those screened.
A dash means the value is not listed here; it may have been measured.

- Cn1c2c(c(=O)n1C)CN(C(=O)c1cccc(F)c1)CCC2 : LdMetRS: 9.971%; Mtb heat-shock: -4.321%
- O=C(NCCNc1ncccn1)N1CCCC1c1ccc(F)cc1 (stereo unspecified) : LdMetRS: 13.91%; Mtb heat-shock: 12.35%
- CCc1ccc2nc(C)cc(C(=O)N[C@@H]3CNC[C@H]3O)c2c1 : LdMetRS: 2.115%; Mtb heat-shock: -170.5%
- CC(C)Cc1cc(C(=O)NC(C)(C)CN2CCCCCC2)on1 : LdMetRS: 15.64%; Mtb heat-shock: 72.52%
- Cc1ccnn1CCNC(=O)C1CCN(S(=O)(=O)c2ccc(F)cc2)C1 (stereo unspecified) : LdMetRS: 0%; Mtb heat-shock: 4.166%
- O=C(O)C(F)(F)F.[H][C@@]12CN(Cc3cc(C)cc(C)c3)C[C@]1([H])OCCN2CC(=O)N(C)C : Mtb heat-shock: 35.65%
- CC(C)N1CCC2(CC1)C(=O)N(CCN(C)C)c1ccccc12 : LdMetRS: 11.73%
- O=C(CC1Cn2ncnc2NC1=O)Nc1ccccc1 (stereo unspecified) : LdMetRS: 9.143%; Mtb heat-shock: -6.657%
- COc1c(CNCc2ccccc2Cn2cncn2)c(C)nn1C : LdMetRS: 11.54%; Mtb heat-shock: 12.33%
- CNc1nc(C(=O)N2CCC3(CCCN(CCOC)C3=O)C2)cs1 (stereo unspecified) : LdMetRS: 23.34%; Mtb heat-shock: -11.88%
- CS(=O)(=O)N1CCc2[nH]cnc2C12CCN(C(=O)c1cccnc1)CC2 : LdMetRS: 4.965%; Mtb heat-shock: 0.9189%
- O=C(CCc1cncc(F)c1)NS(=O)(=O)c1ccc(F)cc1F : LdMetRS: 4.032%; Mtb heat-shock: 21.56%
- Cc1c(CNC(=O)Nc2cccc3c2CCN3C)cnn1C : LdMetRS: 2.957%; Mtb heat-shock: 13.79%
- Cc1ccc(CN(C)Cc2nc3ccc(F)cc3[nH]2)cn1 : LdMetRS: 20.92%; Mtb heat-shock: -2.761%
- CN(C(=O)CCN1CCCC1=O)c1cc(C#N)c2ccccc2n1 : LdMetRS: 12.71%; Mtb heat-shock: -13%
- CCCN(Cc1cnn(C)c1)CC1CCCN(S(C)(=O)=O)C1 (stereo unspecified) : LdMetRS: 4.19%; Mtb heat-shock: -15.34%
- CC(=O)NCc1noc2c1CN(CCN1CCCC1)CC2 : LdMetRS: 20.29%
- CC1(C)CC1(C(=O)N1CC(c2cccnc2)C1)c1ccccc1F (stereo unspecified) : LdMetRS: 13.68%; Mtb heat-shock: -4.36%
- Cc1cc(C(N)=O)c(N2C[C@@H](C)[C@@](C)(O)C2)nc1C : LdMetRS: 13.16%; Mtb heat-shock: 11%
- COc1ccc(CCC(C)Nc2cccc(SC)c2)cc1 (stereo unspecified) : LdMetRS: 16.51%; Mtb heat-shock: -10.99%
- Cc1cc(CN(C)C(=O)NCc2ccnc(N(C)C)c2)no1 : LdMetRS: 10.44%; Mtb heat-shock: -6.984%
- CC(C#N)CN(C)Cc1ccc(Cl)c2cccnc12 (stereo unspecified) : LdMetRS: 9.582%; Mtb heat-shock: -41.17%
- CC(C)N(C)C(=O)c1ccc(CNc2ccncc2Cl)cc1 : LdMetRS: 0.5988%; Mtb heat-shock: -9.742%
- [H][C@]12CC[C@]([H])(CN(Cc3ccccc3)C1)N(C(=O)CCc1cnn(C)c1)C2 : Mtb heat-shock: 15.16%
- CS(=O)(=O)N1CCc2ncc(CNC(=O)C3CCC3)n2CC1 : LdMetRS: 7.614%; Mtb heat-shock: -20.84%
- Cc1ccc(S(=O)(=O)NCCc2nnc[nH]2)c2cccnc12 : LdMetRS: 4.244%; Mtb heat-shock: -24.24%
- CN1CCN(Cc2cnc3n2CCN(CCc2ccccc2)C3)CC1.O=C(O)C(F)(F)F.O=C(O)C(F)(F)F.O=C(O)C(F)(F)F : Mtb heat-shock: -18.16%
- Cc1cccc(CN2CCC3(CC2)NC(=O)C[C@H]3c2cnn(C)c2)n1 : LdMetRS: 9.041%
- CCOCC1CN(C(=O)Cc2ccccn2)Cc2c1cnn2C (stereo unspecified) : LdMetRS: 14.29%
- CN(C)c1ncnc2c1CCN(C(=O)CN1CCCCC1)C2 : LdMetRS: 22.29%; Mtb heat-shock: -26.28%
- CCC[C@H]1CN(S(=O)(=O)N(C)Cc2ccccc2)C[C@@H]1N : LdMetRS: 10.45%; Mtb heat-shock: -11.31%
- CCS(=O)(=O)N(C)C1CCN(C(=O)c2cc(C)cc(C)c2)CC1 : LdMetRS: 9.341%; Mtb heat-shock: -15.09%
- COc1ccc(C2OC(COc3ccccc3Br)=NN2C(C)=O)cc1 (stereo unspecified) : LdMetRS: 8.824%; Mtb heat-shock: -1.538%
- CCN1CCN(C2CCN(Cc3nc(-c4ccoc4)no3)CC2)C1=O : LdMetRS: 9.312%; Mtb heat-shock: -11.91%
- CC(=O)N(C)c1nc(Cn2nnnc2C(C)C)cs1 : LdMetRS: 19.52%; Mtb heat-shock: 9.396%
- O=C(O)C(F)(F)F.O=C(O)C(F)(F)F.[H][C@@]12C[C@@H](OCc3ccccc3)CN1CCN(c1ncccn1)C2 : Mtb heat-shock: -27.27%
- COCCNC(=O)Cn1cc(OCc2ccc(F)cc2)c(=O)cc1CO : LdMetRS: 13.15%; Mtb heat-shock: -18.46%
- CC(CN1CCCC1)C(=O)N1CCC(c2nccn2CC2CC2)CC1 (stereo unspecified) : LdMetRS: 13.41%; Mtb heat-shock: 2.438%
- CCC(C(=O)NCc1ccncc1)N(c1ccc(OC)cc1)S(C)(=O)=O (stereo unspecified) : LdMetRS: 13.66%; Mtb heat-shock: -14.45%
- CCC(CNC(=O)C1CC1)(OC)c1ccccc1 (stereo unspecified) : LdMetRS: -3.597%; Mtb heat-shock: -16.42%

For reference, 3 entries once more:

Compound,LdMetRS,Mtb heat-shock
CC(C)N1CCC2(CC1)C(=O)N(CCN(C)C)c1ccccc12,11.73,-
COc1ccc(C2OC(COc3ccccc3Br)=NN2C(C)=O)cc1 (stereo unspecified),8.824,-1.538
CN(C)c1ncnc2c1CCN(C(=O)CN1CCCCC1)C2,22.29,-26.28